Experimental data: publication PMC4777444
Like-named read-outs stand apart in the source and are kept apart here. No constants are given. Whether binding was seen depends on the method and setting. For some of these results: Binding seen in cells or lysates may run through a third protein. Some binding calls cover weakened binding; strength is not graded here. For some of these results: Sequences can lack the tags named with a protein. One block for each molecule: values may come before it.

Protein sequences, listed by entry. Tags and fused reporters are not part of them.
UniProt Q8N108: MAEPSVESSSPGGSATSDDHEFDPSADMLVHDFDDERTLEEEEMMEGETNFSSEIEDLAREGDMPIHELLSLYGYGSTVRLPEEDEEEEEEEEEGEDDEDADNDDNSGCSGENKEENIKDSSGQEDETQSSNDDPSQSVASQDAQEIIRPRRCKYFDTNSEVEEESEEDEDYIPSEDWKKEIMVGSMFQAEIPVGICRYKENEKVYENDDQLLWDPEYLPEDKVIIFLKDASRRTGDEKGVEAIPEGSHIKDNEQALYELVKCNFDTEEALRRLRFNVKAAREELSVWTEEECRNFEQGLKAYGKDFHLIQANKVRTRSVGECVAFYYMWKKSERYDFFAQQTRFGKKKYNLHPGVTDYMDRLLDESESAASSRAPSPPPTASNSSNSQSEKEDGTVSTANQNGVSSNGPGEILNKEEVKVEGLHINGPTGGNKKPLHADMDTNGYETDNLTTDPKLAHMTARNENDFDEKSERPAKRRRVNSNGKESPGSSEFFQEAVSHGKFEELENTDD
UniProt Q92769: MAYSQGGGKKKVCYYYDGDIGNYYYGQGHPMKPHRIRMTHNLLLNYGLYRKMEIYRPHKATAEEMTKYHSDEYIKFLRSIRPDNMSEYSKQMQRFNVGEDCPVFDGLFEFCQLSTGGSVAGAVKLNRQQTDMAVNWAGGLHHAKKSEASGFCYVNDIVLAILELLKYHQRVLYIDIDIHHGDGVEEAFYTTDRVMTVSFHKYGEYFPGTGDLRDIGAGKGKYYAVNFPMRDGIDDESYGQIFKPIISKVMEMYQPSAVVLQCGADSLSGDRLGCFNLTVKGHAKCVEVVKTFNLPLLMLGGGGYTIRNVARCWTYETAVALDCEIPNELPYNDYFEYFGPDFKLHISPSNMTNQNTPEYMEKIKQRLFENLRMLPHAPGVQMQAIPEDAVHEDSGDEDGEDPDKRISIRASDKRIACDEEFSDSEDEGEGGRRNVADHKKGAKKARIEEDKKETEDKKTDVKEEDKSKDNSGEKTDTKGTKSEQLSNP
UniProt Q96KQ7: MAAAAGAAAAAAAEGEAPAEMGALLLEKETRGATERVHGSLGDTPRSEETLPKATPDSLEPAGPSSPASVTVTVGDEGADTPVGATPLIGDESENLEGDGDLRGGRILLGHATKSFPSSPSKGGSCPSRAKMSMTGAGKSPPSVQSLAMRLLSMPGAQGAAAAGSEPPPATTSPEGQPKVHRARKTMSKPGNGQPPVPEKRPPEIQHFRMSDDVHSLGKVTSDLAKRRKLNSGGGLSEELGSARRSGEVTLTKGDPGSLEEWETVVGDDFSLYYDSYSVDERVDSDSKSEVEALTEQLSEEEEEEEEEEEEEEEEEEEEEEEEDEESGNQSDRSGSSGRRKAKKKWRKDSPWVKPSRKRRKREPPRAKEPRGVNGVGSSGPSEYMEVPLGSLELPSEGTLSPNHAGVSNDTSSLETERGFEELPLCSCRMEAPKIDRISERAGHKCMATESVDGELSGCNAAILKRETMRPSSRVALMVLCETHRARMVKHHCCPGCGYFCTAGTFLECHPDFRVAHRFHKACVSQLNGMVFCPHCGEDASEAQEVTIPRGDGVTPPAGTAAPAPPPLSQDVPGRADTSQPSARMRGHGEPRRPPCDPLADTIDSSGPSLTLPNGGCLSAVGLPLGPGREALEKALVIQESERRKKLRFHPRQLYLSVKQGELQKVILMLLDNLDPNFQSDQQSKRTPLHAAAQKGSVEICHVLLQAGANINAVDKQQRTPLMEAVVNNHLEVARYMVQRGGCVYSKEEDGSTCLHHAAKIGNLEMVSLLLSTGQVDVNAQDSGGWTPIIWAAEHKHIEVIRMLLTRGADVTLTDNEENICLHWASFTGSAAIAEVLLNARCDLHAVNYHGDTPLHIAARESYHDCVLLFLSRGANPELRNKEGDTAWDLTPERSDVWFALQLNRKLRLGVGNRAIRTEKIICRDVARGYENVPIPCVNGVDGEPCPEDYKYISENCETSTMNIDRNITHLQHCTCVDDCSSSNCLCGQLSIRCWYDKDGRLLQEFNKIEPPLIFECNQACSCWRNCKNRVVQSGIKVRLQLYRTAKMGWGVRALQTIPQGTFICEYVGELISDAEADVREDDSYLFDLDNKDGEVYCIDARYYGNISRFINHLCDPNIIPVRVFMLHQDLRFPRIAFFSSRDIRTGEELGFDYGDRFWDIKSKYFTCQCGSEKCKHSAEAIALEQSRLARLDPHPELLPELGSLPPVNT
UniProt Q13547: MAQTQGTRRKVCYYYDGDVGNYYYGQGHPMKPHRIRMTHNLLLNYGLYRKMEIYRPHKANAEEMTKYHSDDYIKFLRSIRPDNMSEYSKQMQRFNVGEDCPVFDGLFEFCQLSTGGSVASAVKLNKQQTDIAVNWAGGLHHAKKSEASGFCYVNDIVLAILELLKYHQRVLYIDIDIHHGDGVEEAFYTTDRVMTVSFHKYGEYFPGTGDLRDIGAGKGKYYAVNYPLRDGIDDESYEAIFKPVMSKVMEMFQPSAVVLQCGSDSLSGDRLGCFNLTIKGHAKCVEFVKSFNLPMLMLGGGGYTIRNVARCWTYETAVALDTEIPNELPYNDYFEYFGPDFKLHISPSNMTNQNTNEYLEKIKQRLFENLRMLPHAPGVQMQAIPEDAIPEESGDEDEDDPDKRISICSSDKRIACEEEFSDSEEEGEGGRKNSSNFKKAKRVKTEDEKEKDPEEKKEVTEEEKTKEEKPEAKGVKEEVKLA
UniProt Q13185: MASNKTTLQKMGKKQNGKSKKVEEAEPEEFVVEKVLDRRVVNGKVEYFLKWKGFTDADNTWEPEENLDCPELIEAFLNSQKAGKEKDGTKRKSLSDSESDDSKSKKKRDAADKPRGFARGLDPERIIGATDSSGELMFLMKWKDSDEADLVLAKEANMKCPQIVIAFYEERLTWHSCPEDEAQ
UniProt Q13263: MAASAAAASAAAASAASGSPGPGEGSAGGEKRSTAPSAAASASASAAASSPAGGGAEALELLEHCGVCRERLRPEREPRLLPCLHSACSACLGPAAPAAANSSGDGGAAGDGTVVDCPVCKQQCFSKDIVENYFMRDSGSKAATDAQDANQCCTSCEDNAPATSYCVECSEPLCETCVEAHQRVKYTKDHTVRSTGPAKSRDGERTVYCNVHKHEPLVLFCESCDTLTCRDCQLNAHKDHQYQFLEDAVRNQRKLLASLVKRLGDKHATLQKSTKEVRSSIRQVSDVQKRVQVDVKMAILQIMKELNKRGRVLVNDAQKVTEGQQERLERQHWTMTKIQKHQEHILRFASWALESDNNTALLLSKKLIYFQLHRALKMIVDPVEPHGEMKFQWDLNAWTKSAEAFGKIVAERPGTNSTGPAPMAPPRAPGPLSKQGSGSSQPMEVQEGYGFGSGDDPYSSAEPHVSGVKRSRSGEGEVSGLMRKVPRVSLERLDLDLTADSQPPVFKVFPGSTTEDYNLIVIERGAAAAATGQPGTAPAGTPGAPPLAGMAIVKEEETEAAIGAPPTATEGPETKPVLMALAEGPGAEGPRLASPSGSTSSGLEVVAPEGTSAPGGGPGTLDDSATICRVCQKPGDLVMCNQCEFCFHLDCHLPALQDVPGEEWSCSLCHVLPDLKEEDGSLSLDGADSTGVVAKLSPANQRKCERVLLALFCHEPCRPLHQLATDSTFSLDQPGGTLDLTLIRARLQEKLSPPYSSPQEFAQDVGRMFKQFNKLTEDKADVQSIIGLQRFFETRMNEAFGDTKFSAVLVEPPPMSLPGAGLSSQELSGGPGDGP

Assays:
[1] = molecular target: T1, His6-Protein-C-tagged BAHD1 (UniProt Q8TBE0); experiment: tandem affinity purification with immunoblot; His6-Protein-C-BAHD1 from solubilized chromatin extracts of HPT-BAHD1 cells on anti-protein C affinity matrix (E1) and nickel-Sepharose (E2); immunoblots of inputs, E1 and E2; HPT-CT cells as control
T1 sequence: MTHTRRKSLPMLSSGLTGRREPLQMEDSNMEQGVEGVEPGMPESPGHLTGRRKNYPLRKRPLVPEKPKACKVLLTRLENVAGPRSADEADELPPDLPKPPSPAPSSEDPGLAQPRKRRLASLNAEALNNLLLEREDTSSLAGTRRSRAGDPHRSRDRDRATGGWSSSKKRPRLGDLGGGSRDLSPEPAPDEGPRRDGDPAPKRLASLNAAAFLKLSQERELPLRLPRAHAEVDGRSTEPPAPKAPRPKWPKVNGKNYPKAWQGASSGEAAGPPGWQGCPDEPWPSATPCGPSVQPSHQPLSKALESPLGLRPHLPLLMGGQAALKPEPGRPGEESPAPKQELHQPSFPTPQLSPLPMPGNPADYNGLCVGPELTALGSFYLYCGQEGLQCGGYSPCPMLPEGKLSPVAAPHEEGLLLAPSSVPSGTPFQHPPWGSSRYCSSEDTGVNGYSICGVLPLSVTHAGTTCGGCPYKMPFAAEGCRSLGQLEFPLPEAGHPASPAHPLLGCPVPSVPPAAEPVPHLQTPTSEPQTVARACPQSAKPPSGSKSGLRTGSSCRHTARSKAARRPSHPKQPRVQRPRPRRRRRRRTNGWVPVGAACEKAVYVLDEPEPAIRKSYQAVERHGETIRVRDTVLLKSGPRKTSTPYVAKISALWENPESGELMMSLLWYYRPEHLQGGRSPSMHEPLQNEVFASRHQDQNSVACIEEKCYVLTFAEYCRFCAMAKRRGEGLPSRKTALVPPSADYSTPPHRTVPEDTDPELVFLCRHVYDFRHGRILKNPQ

YFPc-BAHD1 = molecular target: T2, YFPc-BAHD1 (UniProt Q8TBE0); experiment: co-IP; nuclear extracts (soluble and insoluble fractions sonicated and mixed) of HEK293-FT cells transiently expressing tagged BAHD1; overnight at 4°C with 1-3 μg antibody (MIER1, V5, HDAC2, HP1γ or YFP/GFP; IgG control), Dynabeads Protein G; washes in Tris 20 mM pH 7.65, NaCl 150 mM, 0.05% IGEPAL; immunoblot
T2 sequence: T1 sequence

YFPc-BAHD1-ΔcPRR = molecular target: T3, YFPc-BAHD1-ΔcPRR (UniProt Q8TBE0); experiment: as above
T3 sequence: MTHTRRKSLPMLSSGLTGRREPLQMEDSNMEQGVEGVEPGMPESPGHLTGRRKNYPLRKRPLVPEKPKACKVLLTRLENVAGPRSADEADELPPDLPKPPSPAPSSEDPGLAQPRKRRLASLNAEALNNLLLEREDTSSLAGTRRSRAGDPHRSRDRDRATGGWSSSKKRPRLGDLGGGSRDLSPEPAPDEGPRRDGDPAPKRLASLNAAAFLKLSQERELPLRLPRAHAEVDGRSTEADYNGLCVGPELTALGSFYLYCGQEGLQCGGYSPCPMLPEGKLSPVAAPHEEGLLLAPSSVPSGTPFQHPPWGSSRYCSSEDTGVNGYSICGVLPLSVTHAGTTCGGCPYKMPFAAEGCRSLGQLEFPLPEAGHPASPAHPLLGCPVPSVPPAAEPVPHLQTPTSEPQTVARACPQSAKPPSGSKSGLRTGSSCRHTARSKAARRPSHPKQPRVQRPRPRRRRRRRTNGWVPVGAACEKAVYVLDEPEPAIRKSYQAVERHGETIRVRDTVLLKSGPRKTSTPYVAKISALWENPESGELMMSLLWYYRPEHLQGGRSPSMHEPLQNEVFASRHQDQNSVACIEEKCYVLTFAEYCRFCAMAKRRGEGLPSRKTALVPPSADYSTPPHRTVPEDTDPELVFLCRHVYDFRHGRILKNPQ

YFPc-BAHD1-ΔBAH = molecular target: T4, YFPc-BAHD1-ΔBAH (UniProt Q8TBE0); experiment: as above
T4 sequence: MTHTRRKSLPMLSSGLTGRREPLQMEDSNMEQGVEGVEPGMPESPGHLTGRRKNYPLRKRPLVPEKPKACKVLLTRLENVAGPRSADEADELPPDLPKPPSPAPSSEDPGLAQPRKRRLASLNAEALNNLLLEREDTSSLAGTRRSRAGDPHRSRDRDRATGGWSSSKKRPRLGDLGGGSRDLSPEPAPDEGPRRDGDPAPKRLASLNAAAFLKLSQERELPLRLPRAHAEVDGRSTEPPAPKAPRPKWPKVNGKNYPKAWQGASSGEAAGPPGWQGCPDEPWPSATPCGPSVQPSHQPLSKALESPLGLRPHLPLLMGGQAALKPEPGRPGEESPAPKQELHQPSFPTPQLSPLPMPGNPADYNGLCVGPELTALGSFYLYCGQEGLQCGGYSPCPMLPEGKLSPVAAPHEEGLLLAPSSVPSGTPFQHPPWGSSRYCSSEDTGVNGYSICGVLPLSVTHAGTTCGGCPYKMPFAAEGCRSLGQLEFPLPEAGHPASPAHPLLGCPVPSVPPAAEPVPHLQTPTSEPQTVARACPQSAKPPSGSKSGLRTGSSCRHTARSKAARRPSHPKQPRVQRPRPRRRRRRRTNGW

[2] = molecular target: MIER1 (mesoderm induction early response protein 1) (human (endogenous in HEK293)) (UniProt Q8N108); experiment: as above
V5-tagged BAHD1 = molecular target: T5, V5-tagged BAHD1 (UniProt Q8TBE0); experiment: as above
T5 sequence: T1 sequence

[3] = molecular target: HDAC2 (human (endogenous in HEK293)) (UniProt Q92769); experiment: as above
[4] = molecular target: HDAC2 (human (endogenous in HEK293)) (UniProt Q92769); experiment: as above; remark: listed apart in the source

binding [1]: binds
Molecule: G9a (from UniProt Q96KQ7 1-1210) (enzyme)

binding [1]: binds
Molecule: HDAC1 (from UniProt Q13547 1-482) (enzyme)

binding [1]: binds | binding (YFPc-BAHD1): binds | binding (YFPc-BAHD1-ΔcPRR): binds | binding (YFPc-BAHD1-ΔBAH): no binding
Molecule: HDAC2 (from UniProt Q92769 1-488) (enzyme)

binding [1]: binds | binding [2]: binds | binding (YFPc-BAHD1): binds | binding (V5-tagged BAHD1): binds | binding (YFPc-BAHD1-ΔcPRR): binds | binding (YFPc-BAHD1-ΔBAH): binds | binding [3]: binds weakly
Molecule: HP1γ (from UniProt Q13185 1-183)

binding [1]: binds
Molecule: KAP1 (from UniProt Q13263 1-835)

binding [4]: binds weakly
B1: V5-tagged BAHD1 (protein, UniProt Q8TBE0 1-780)
chain: T1 sequence

binding [1]: binds
B2: MBD1 (protein, UniProt Q9UIS9 1-605)
chain: MAEDWLDCPALGPGWKRREVFRKSGATCGRSDTYYQSPTGDRIRSKVELTRYLGPACDLTLFDFKQGILCYPAPKAHPVAVASKKRKKPSRPAKTRKRQVGPQSGEVRKEAPRDETKADTDTAPASFPAPGCCENCGISFSGDGTQRQRLKTLCKDCRAQRIAFNREQRMFKRVGCGECAACQVTEDCGACSTCLLQLPHDVASGLFCKCERRRCLRIVERSRGCGVCRGCQTQEDCGHCPICLRPPRPGLRRQWKCVQRRCLRGKHARRKGGCDSKMAARRRPGAQPLPPPPPSQSPEPTEPHPRALAPSPPAEFIYYCVDEDELQPYTNRRQNRKCGACAACLRRMDCGRCDFCCDKPKFGGSNQKRQKCRWRQCLQFAMKRLLPSVWSESEDGAGSPPPYRRRKRPSSARRHHLGPTLKPTLATRTAQPDHTQAPTKQEAGGGFVLPPPGTDLVFLREGASSPVQVPGPVAASTEALLQEAQCSGLSWVVALPQVKQEKADTQDEWTPGTAVLTSPVLVPGCPSKAVDPGLPSVKQEPPDPEEDKEENKDDSASKLAPEEEAGGAGTPVITEIFSLGGTRFRDTAVWLPRSKDLKKPGARKQ
